From US20040152871A1
No constants are given. Whether binding was seen depends on the method and setting. Some results given as binding are weak or reduced against the parent protein; the word gives no strength.

Protein sequences, listed by entry. Tags and fused reporters are not part of them. Lines headed by an entry give the natural chain unless they say otherwise; changes in a name come on top.
UniProt Q86TM6: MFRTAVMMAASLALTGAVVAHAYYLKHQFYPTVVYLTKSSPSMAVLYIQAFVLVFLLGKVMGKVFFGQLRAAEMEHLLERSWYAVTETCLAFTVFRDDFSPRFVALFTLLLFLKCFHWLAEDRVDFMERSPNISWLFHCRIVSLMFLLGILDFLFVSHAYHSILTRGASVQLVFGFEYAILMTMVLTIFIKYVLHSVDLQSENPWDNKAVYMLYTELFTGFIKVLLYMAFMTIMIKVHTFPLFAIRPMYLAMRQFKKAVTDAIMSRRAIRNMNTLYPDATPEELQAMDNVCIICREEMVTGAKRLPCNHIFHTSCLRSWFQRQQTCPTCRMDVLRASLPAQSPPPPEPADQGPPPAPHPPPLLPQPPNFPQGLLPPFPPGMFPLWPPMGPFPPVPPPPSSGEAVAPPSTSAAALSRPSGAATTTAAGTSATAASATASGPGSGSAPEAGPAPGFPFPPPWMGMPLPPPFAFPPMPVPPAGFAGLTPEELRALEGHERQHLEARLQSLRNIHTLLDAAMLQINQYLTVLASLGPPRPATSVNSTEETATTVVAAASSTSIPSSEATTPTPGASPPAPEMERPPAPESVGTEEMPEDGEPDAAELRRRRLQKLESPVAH

Biological target: GST-partial Synoviolin fusion protein (human) (UniProt Q86TM6)
Assay: expression library screening, plaque protein on nitrocellulose, 32P-labeled GST-partial Synoviolin as probe

B1: Synoviolin ligand (SL), clone expressed from the RA patient synovial cell cDNA expression library (ligand, human, UniProt Q12805 1-493, looked up)
chain: MLKALFLTMLTLALVKSQDTEETITYTQCTDGYEWDPVRQQCKDIDECDIVPDACKGGMKCVNHYGGYLCLPKTAQIIVNNEQPQQETQPAEGTSGATTGVVAASSMATSGVLPGGGFVASAAAVAGPEMQTGRNNFVIRRNPADPQRIPSNPSHRIQCAAGYEQSEHNVCQDIDECTAGTHNCRADQVCINLRGSFACQCPPGYQKRGEQCVDIDECTIPPYCHQRCVNTPGSFYCQCSPGFQLAANNYTCVDINECDASNQCAQQCYNILGSFICQCNQGYELSSDRLNCEDIDECRTSSYLCQYQCVNEPGKFSCMCPQGYQVVRSRTCQDINECETTNECREDEMCWNYHGGFRCYPRNPCQDPYILTPENRCVCPVSNAMCRELPQSIVYKYMSIRSDRSVPSDIFQIQATTIYANTINTFRIKSGNENGEFYLRQTSPVSAMLVLVKSLSGPREHIVDLEMLTVSSIGTFRTSSVLRLTIIVGPFSF
binding: binds
